Assay results as given in PMC8273494.
For at least one entry, the source does not settle the construct or the ends of the probe. Results from cells or extracts need not show a direct contact. The direction of at least one scale is not stated here. For some of these results: Where a protein sequence is shown, tags need not be part of it.

Chains of the proteins cited; added tags and fusions are not shown. Lines headed by an entry give the natural chain unless they say otherwise; changes in a name come on top.
UniProt P22626: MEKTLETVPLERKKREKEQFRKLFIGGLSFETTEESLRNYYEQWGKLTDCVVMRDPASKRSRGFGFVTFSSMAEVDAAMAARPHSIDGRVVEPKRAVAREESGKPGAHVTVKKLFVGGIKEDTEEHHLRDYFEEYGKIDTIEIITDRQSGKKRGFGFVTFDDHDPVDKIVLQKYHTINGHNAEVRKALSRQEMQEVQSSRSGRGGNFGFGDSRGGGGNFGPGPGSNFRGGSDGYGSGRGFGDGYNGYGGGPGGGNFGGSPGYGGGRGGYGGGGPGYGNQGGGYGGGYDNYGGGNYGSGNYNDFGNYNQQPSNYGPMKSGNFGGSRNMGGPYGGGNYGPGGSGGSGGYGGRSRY
UniProt Q00839, whole entry: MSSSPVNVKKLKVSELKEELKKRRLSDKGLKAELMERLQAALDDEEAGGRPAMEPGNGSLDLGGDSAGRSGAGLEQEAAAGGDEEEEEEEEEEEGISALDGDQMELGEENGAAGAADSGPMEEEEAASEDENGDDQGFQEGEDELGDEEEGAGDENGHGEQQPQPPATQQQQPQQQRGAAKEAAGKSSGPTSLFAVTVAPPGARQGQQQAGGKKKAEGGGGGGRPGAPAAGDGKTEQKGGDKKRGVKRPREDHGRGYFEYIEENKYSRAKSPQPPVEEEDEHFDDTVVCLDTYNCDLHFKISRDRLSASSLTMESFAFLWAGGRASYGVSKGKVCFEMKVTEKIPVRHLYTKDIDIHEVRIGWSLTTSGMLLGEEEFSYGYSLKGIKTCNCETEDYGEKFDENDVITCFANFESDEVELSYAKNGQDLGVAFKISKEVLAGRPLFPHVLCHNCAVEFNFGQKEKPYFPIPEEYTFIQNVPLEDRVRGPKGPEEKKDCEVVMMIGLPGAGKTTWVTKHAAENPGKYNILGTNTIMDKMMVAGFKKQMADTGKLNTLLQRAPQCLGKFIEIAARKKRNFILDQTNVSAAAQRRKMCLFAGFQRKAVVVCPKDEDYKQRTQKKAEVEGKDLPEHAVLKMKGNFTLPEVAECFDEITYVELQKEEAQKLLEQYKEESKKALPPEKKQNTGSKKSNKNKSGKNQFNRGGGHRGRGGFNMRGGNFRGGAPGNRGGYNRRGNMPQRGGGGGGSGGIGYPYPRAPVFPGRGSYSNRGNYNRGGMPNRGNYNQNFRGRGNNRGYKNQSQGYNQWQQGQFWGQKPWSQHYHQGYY
UniProt P09651: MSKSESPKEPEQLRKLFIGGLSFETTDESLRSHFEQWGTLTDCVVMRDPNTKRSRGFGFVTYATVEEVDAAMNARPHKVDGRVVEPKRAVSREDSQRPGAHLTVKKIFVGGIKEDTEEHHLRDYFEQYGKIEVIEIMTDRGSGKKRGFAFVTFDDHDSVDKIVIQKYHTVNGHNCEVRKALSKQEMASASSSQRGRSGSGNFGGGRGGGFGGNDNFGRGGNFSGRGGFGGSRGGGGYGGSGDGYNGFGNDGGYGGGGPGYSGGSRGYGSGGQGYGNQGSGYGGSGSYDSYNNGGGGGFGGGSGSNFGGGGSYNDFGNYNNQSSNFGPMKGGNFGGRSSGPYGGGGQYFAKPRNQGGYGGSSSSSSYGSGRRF
UniProt P15924: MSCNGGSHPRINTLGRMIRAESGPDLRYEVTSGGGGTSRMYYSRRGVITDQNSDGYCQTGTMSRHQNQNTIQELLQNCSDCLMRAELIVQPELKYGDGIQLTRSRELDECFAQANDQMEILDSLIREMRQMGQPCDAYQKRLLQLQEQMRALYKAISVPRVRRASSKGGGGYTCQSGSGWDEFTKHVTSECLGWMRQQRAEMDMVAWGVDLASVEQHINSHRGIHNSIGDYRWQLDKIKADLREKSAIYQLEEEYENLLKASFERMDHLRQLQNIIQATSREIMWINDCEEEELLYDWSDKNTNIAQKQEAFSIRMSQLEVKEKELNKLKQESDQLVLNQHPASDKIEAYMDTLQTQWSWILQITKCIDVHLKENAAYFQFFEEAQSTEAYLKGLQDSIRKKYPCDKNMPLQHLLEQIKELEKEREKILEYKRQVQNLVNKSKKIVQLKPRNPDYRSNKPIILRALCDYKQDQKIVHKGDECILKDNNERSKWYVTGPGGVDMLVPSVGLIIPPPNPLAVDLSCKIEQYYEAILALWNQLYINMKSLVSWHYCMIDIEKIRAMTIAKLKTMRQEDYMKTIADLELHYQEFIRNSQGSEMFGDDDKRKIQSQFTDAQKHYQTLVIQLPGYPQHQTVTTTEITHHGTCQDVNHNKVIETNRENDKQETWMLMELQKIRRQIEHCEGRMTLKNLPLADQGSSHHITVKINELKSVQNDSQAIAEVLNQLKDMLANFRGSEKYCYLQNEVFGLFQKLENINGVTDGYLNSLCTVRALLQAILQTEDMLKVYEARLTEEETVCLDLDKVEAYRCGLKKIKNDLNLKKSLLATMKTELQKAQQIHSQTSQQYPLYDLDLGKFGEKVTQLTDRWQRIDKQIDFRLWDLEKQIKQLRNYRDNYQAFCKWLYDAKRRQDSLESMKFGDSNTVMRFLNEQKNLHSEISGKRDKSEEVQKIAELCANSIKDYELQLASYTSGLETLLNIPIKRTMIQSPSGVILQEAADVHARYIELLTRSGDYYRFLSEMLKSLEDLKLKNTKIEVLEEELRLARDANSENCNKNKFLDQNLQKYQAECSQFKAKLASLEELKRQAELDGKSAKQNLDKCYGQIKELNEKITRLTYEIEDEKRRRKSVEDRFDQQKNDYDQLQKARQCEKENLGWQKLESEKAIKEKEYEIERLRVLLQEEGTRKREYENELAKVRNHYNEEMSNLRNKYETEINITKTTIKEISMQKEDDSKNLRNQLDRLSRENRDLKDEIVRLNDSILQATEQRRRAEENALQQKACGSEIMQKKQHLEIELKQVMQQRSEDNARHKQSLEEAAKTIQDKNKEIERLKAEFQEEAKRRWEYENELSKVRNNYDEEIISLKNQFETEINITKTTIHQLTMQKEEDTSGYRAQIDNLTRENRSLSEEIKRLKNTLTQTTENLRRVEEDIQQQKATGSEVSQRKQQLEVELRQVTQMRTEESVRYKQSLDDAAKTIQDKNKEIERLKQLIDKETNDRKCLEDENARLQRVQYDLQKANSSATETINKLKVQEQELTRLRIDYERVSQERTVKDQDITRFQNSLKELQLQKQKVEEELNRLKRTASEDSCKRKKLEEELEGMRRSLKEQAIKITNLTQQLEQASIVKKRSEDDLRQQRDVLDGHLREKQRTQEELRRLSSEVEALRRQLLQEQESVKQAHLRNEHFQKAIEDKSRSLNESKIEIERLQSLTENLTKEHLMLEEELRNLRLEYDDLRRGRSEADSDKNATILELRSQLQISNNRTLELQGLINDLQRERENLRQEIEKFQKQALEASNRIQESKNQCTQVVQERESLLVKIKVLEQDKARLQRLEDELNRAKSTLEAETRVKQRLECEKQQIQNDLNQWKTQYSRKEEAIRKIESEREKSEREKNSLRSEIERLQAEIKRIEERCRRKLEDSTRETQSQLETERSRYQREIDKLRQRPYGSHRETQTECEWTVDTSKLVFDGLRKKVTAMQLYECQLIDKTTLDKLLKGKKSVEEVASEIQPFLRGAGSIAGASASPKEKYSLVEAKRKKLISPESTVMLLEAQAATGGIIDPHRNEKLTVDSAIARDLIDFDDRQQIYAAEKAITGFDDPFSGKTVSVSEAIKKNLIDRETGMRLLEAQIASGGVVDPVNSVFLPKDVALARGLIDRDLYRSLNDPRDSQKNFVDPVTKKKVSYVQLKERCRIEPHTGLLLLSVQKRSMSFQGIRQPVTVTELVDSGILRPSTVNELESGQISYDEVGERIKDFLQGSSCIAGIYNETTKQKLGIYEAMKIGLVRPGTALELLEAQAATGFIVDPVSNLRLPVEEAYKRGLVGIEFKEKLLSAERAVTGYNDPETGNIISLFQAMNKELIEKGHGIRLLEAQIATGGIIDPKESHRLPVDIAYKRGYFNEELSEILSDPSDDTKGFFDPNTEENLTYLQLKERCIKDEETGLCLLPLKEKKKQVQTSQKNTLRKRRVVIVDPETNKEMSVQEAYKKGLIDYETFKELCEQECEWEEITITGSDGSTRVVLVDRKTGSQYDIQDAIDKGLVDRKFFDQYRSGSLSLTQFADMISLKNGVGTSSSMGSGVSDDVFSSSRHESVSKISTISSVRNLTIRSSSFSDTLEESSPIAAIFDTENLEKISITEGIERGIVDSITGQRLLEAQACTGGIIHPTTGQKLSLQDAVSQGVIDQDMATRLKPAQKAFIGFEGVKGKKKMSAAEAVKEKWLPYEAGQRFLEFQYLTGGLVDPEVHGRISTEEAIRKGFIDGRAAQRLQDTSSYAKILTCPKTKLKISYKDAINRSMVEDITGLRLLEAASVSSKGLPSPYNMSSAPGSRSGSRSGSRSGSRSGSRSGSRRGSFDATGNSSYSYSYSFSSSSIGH

Columns and labels:
Experiment in all cases: BLI pull-down + MS
[1] = biological target: hnRNP A2/B1 (A375 nuclear extract) (UniProt P22626); details: PBS blank 24 PSMs, BLI: biotinylated aptamer on SA sensors in A375 nuclear protein extract, formic acid elution
[2] = biological target: T1, hnRNP D0 (A375 nuclear extract) (UniProt Q14103); details: PBS blank 8 PSMs, BLI: biotinylated aptamer on SA sensors in A375 nuclear protein extract, formic acid elution, protein in an extract
T1 sequence (looked up, limits assumed): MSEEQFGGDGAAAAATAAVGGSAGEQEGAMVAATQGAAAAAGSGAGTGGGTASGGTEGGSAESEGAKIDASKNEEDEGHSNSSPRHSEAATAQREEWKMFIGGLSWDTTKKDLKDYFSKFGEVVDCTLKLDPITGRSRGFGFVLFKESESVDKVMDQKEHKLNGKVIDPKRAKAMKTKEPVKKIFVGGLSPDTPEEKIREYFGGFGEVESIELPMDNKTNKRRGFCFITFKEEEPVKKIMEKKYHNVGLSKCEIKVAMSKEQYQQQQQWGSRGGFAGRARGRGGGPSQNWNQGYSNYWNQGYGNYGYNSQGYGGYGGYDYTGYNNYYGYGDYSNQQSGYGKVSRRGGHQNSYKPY

[3] = biological target: hnRNP U (A375 nuclear extract) (UniProt Q00839); details: PBS blank none, BLI: biotinylated aptamer on SA sensors in A375 nuclear protein extract, formic acid elution, protein in an extract
[4] = biological target: hnRNP A1 (A375 nuclear extract) (UniProt P09651); details: PBS blank 25 PSMs, BLI: biotinylated aptamer on SA sensors in A375 nuclear protein extract, formic acid elution
[5] = biological target: Desmoplakin (A375 nuclear extract) (UniProt P15924); details: BLI: biotinylated aptamer on SA sensors in A375 nuclear protein extract, formic acid elution, protein in an extract
[6] = phosphorothioate 3' of nt 1,2,3,9,10,11,12,13,14,28,29,30 (stereorandom), protein in an extract, label: 5'-biotin, synthetic backbone
[7] = protein in an …, single-stranded DNA

Row | Sequence | binding signal [1, 6] [PSMs] | binding signal ([2]; NC 55 PSMs, phosphorothioate 3' of nt 1,2,3,9,10,11,12,13,14,28,29,30 (stereorandom), label: 5'-biotin, synthetic backbone) [PSMs] | binding signal ([3]; NC 79 PSMs, phosphorothioate 3' of nt 1,2,3,9,10,11,12,13,14,28,29,30 (stereorandom), label: 5'-biotin, synthetic backbone) [PSMs] | binding signal [4, 6] [PSMs] | binding signal ([5]; PBS blank 42 PSMs, phosphorothioate 3' of nt 1,2,3,9,10,11,12,13,14,28,29,30 (stereorandom), label: 5'-biotin, synthetic backbone) [PSMs] | binding signal [1, 7] [PSMs] | binding signal ([2]; single-stranded DNA) [PSMs] | binding signal ([3]; single-stranded DNA) [PSMs] | binding signal [4, 7] [PSMs] | binding signal ([5]; below PBS blank (42 PSMs), single-stranded DNA) [PSMs]
1 | TGTGGCGAGGTAGGTGGGGTGTGTGTGTATC [WW-24] | 229 | 39 | 81 | 281 | 85 | – | – | – | – | –
2 | TGGTGCGGTGTGGGTCGAGTGGTATGGTATG [NC] | – | – | – | – | – | 63 | 55 | 79 | 111 | 28
